Most values lie at the floor of the assay. Slopes are relative: functional sequences can read slightly below zero. Where only a bound is given, the exact number is not on record here.

In this series the test system is Saccharomyces cerevisiae PS128 hsf1 delta, HSF1(1-493) fusion. Put plainly: growth estimate (transactivation domain function in HSF1 fusion, heat-shock survival) (a.u. (slope of normalised read count over time)); higher = stronger growth at 37°C, i.e. more transactivation activity. As to conditions: library: random library. On the procedure: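 Random 60-nt DNA library encoding peptides of up to 20 aa, fused to the C-terminus of yeast HSF1 residues 1-493 (C-terminal TAD deleted) and expressed from the native HSF1 promoter on a CEN plasmid in hsf1-deleted S. cerevisiae PS128. Cells were selected at 37°C on -trp 5-FOA plates for 0, 2, 4, 6 and 8 days and amplicons were sequenced. Growth estimate is the slope of a robust linear fit of total-sum-normalised read counts (normalised to the first time point) over time, using at least 2 replicates. Sequences are classed functional (TAD activity) above a threshold of -0.13, set from stop-codon control sequences.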
For IRAAEPHSAEPIVQRHSFSG, the growth estimate was under -0.25.

Consider AIIAVTELVLVEATLESIRM, for which the growth estimate is -0.248.

SLYTRAQYSDEGASVQPRWG: the growth estimate was under -0.25.

EERM: the growth estimate was under -0.25.

As to VGFLASLRTPPSCDGHVGSG, the growth estimate was under -0.25.

In the case of TRLLSIKGVKWFIRDGKERT, the growth estimate was under -0.25.

Regarding KPMGTISICKYQCRVRVEYT, the growth estimate is under -0.25.

Take LLSSADV: the growth estimate is -0.228.

With TCIRESSDQVRYCAAEKGAK, the growth estimate is under -0.25.

For DQPVRVSLRCRPYSTSCKRG, the growth estimate is under -0.25.

On to TVFTYPGLQTSESSLFEMSC, for which the growth estimate was under -0.25.

On to GSFLLIGHGKNRFVRQGTLA, for which the growth estimate is under -0.25.

RVVA: the growth estimate was under -0.25.

As to PTINGPFGRHAQDPSYGAST, the growth estimate is under -0.25.

Take SEGAPSSDSVPTLLHSCSTS: the growth estimate is -0.25.

Turning to GCPRRLVQEYFSAKSLEIRL, the growth estimate was under -0.25.

In the case of AGARGPLLQAPMSWFRQFVT, the growth estimate was under -0.25.

Regarding MTKWTLAAVPRLARDPIRWS, the growth estimate is under -0.25.

Regarding AILFKTADSKPSVSPKCYRP, the growth estimate was under -0.25.

In the case of KKLLRRDWMTQK, the growth estimate was under -0.25.

With HDREP, the growth estimate is under -0.25.

In the case of RSSLCISRSQSNDQTCFRVH, the growth estimate is under -0.25.

RVPSLDKRKRIHPRVVQSFP: the growth estimate is under -0.25.

PPASHEIRSKALGA: the growth estimate is under -0.25.

Turning to DPVSLAYRDFWDY, the growth estimate is 0.0385.

With RYWHIKDLLRRRGLHSGLGK, the growth estimate is under -0.25.

As for ASFWVRRLPGVHELQRPTAH, the growth estimate was under -0.25.

Regarding YVGIRGVGAYRCGALHAGNH, the growth estimate was under -0.25.

Turning to GPKGGPAENCSSDCWTTRIY, the growth estimate is under -0.25.

Regarding LCRGWRNVNASGASIPVKLQ, the growth estimate was under -0.25.

With QLTNHILNQPT, the growth estimate was under -0.25.

For RIASSTREPRPMWAWENFH, the growth estimate is under -0.25.

In the case of QNGISVSSLRLRRRGLLRSV, the growth estimate was -0.246.

In the case of ILKKGYPSCTYARLAM, the growth estimate is under -0.25.

In the case of MYQTGES, the growth estimate was under -0.25.

For GHNQVSS, the growth estimate was under -0.25.

Turning to RKVRYFAAFEDALQEMTWLR, the growth estimate is under -0.25.

IHGEAKIGLGSTPRFPLKVF: the growth estimate was -0.248.

For the substance FTRQDQQT, the growth estimate is under -0.25.

Regarding IYPSP, the growth estimate is under -0.25.

As for GNLCAMS, the growth estimate was under -0.25.

SQIRRLGLINYCMNFSRHLL: the growth estimate was under -0.25.

On to WRCYCPVCMVLCHSYFWPVT, for which the growth estimate was under -0.25.

Turning to CCLTRWHNI, the growth estimate was under -0.25.

As to PTSCRRPGPKSRRAQL, the growth estimate is under -0.25.

Regarding HQGCSSEELGVKAGIHALRC, the growth estimate is under -0.25.

Regarding VYNRARRSYLNTKMEEGPPS, the growth estimate was under -0.25.

With GNTRYL, the growth estimate was under -0.25.

In the case of SRGRVVRIAGMQKRV, the growth estimate was -0.245.

On to HALREHARPVFA, for which the growth estimate was under -0.25.

As to RDTSRVDLMSHLSARNLVSV, the growth estimate is under -0.25.

AVVRYPVFVCVRTVPPPKVV: the growth estimate was under -0.25.

In the case of SGLIRMNRLRNKLLLVSSTG, the growth estimate was under -0.25.

Take RVARPYVH: the growth estimate was under -0.25.

KFLLDGARDYEDAWRENIDW: the growth estimate is -0.0382.

For the substance YSGPLRIQQIIPL, the growth estimate is under -0.25.

For KNPQLLRCQN, the growth estimate is under -0.25.

For ELMIFRDRLSGMWPPR, the growth estimate is under -0.25.

With GCTQIKGSDRF, the growth estimate is under -0.25.

SARGMDLLGVGMYLISLSFI: the growth estimate is -0.19.

As for GQVFRVTEPLSWFHRILPQT, the growth estimate was under -0.25.

As for EYSVRRPG, the growth estimate was -0.145.

(Values after the supplement of paper PMC5949888.)
